# The list shows a part of the results.
# B1: GST-Gap1 (Streptococcus parasanguinis), A1C3L5 (protein)
# chain: MFYFVPSWYNGQRQWYYDTPWWFRVKNRMTFDDSVNQVKMFLQGQEEIGLMILNYQPQLRYFLHKQNIFGIYYWSFFDDIQNITRSYTKIIHLKDLNWPEGCEFLYSPFAVVVRLKGEIFAIVNYAEDGNLHSVSFQKNGKVTKDYIFDDRGFLSSILYYDIDERPLYQDYLNINGVWQVREFLKKENDPTPILMINDFSDQTFSKKYYNGWEELIKERLAIFQNNHVENEDVFVLASDTQHNQLVSSIFKEHRKIYSFFGNRFNLENLGQDRISINDATFLVVDTEKNEELLRKTCENLVFKSIPIVRLSPFDSRLRLGHSQTVKEQIIYFHIDNIELDELYSVIAIILELMTLHLDIELRIVTFRQDFQLDLLKTWIIDFIKTNHFEDLLFKQISEGENEIEDEGEIELSRIAMECFTNENQIIKCLDTARLVIDLGIEPDLYTQIASISAGIPQINRVSSDYVIHQKNGLVISDISKLSSAIEFYFDGLFNWNEALIYAVRKMSDYTSGKILKQWKGMLKKK
# What was measured:
# Assay in all cases: glycan array binding signal (z-score within array); higher = stronger binding
# Details in all cases: glycan notation: IUPAC condensed, linker removed
# [1] = target: GlcNAc(b1-3)Gal(b1-4)GlcNAc(b1-3)Gal(b1-4)GlcNAc(b1-2)[GlcNAc(b1-3)Gal(b1-4)GlcNAc(b1-3)Gal(b1-4)GlcNAc(b1-6)]Man(a1-6)[GlcNAc(b1-3)Gal(b1-4)GlcNAc(b1-3)Gal(b1-4)GlcNAc(b1-2)Man(a1-3)]Man(b1-4)GlcNAc(b1-4)[Fuc(a1-6)]GlcNAc
# Method in brief: (§1)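 Columns mapping to the same glycan were averaged after glycan names were converted to IUPAC-condensed notation. The data come from 3228 arrays in the Consortium for Functional Glycomics database, limited to those with an available protein sequence. Binding is reported as a within-array Z-score averaged across arrays of one protein sequence and across linkers.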
# [2] = target: GlcNAc(b1-3)Gal(b1-4)GlcNAc(b1-3)Gal(b1-4)GlcNAc(b1-3)Gal(b1-4)GlcNAc(b1-2)Man(a1-3)[GlcNAc(b1-3)Gal(b1-4)GlcNAc(b1-3)Gal(b1-4)GlcNAc(b1-3)Gal(b1-4)GlcNAc(b1-2)Man(a1-6)]Man(b1-4)GlcNAc(b1-4)GlcNAc
# Method in brief: as §1
# [3] = target: GlcNAc(b1-3)Gal(b1-4)GlcNAc(b1-3)Gal(b1-4)GlcNAc(b1-3)Gal(b1-4)GlcNAc(b1-2)Man(a1-3)[GlcNAc(b1-3)Gal(b1-4)GlcNAc(b1-3)Gal(b1-4)GlcNAc(b1-3)Gal(b1-4)GlcNAc(b1-2)Man(a1-6)]Man(b1-4)GlcNAc(b1-4)[Fuc(a1-6)]GlcNAc
# Method in brief: as §1
# [4] = target: GlcNAc(b1-3)Gal(b1-4)GlcNAc(b1-3)Gal(b1-4)GlcNAc(b1-3)Gal(b1-4)GlcNAc(b1-2)[GlcNAc(b1-3)Gal(b1-4)GlcNAc(b1-3)Gal(b1-4)GlcNAc(b1-3)Gal(b1-4)GlcNAc(b1-6)]Man(a1-6)[GlcNAc(b1-3)Gal(b1-4)GlcNAc(b1-3)Gal(b1-4)GlcNAc(b1-3)Gal(b1-4)GlcNAc(b1-2)Man(a1-3)]Man(b1-4)GlcNAc(b1-4)[Fuc(a1-6)]GlcNAc
# Method in brief: as §1
# [5] = target: GlcNAc(b1-3)Gal(b1-4)GlcNAc(b1-3)Gal(b1-4)GlcNAc(b1-3)Gal(b1-4)GlcNAc(b1-3)Gal(b1-4)GlcNAc(b1-2)Man(a1-3)[GlcNAc(b1-3)Gal(b1-4)GlcNAc(b1-3)Gal(b1-4)GlcNAc(b1-3)Gal(b1-4)GlcNAc(b1-3)Gal(b1-4)GlcNAc(b1-2)Man(a1-6)]Man(b1-4)GlcNAc(b1-4)GlcNAc
# Method in brief: as §1
# [6] = target: GlcNAc(b1-3)Gal(b1-4)GlcNAc(b1-3)Gal(b1-4)GlcNAc(b1-3)Gal(b1-4)GlcNAc(b1-3)Gal(b1-4)GlcNAc(b1-2)Man(a1-3)[GlcNAc(b1-3)Gal(b1-4)GlcNAc(b1-3)Gal(b1-4)GlcNAc(b1-3)Gal(b1-4)GlcNAc(b1-3)Gal(b1-4)GlcNAc(b1-2)Man(a1-6)]Man(b1-4)GlcNAc(b1-4)[Fuc(a1-6)]GlcNAc
# Method in brief: as §1
# [7] = target: GlcNAc(b1-3)Gal(b1-4)GlcNAc(b1-3)Gal(b1-4)GlcNAc(b1-3)Gal(b1-4)GlcNAc(b1-3)Gal(b1-4)GlcNAc(b1-2)[GlcNAc(b1-3)Gal(b1-4)GlcNAc(b1-3)Gal(b1-4)GlcNAc(b1-3)Gal(b1-4)GlcNAc(b1-3)Gal(b1-4)GlcNAc(b1-6)]Man(a1-6)[GlcNAc(b1-3)Gal(b1-4)GlcNAc(b1-3)Gal(b1-4)GlcNAc(b1-3)Gal(b1-4)GlcNAc(b1-3)Gal(b1-4)GlcNAc(b1-2)Man(a1-3)]Man(b1-4)GlcNAc(b1-4)[Fuc(a1-6)]GlcNAc
# Method in brief: as §1
# [8] = target: GlcNAc(b1-3)Gal(b1-4)GlcNAc(b1-3)Gal(b1-4)GlcNAc(b1-3)GalNAc
# Method in brief: as §1
# [9] = target: GlcNAc(b1-3)Gal(b1-4)GlcNAc(b1-3)GalNAc
# Method in brief: as §1
# [10] = target: GlcNAc(b1-3)Gal(b1-4)GlcNAc(b1-3)[GlcNAc(b1-3)Gal(b1-4)GlcNAc(b1-3)]GalNAc
# Method in brief: as §1
# [11] = target: GlcNAc(b1-3)Gal(b1-4)GlcNAc(b1-6)[Gal(b1-3)]GalNAc
# Method in brief: as §1
# [12] = target: GlcNAc(b1-3)Gal(b1-4)GlcNAc(b1-6)[GlcNAc(b1-3)Gal(b1-3)]GalNAc
# Method in brief: as §1
# [13] = target: GlcNAc(b1-3)Gal(b1-4)GlcNAc(b1-6)[GlcNAc(b1-3)]Gal(b1-4)GlcNAc
# Method in brief: as §1
# GlcNAc(b1-3)GalNAc = target: GlcNAc(b1-3)GalNAc
# Method in brief: as §1
# GlcNAc(b1-3)Man = target: GlcNAc(b1-3)Man
# Method in brief: as §1
# [14] = target: GlcNAc(b1-3)[GlcNAc(b1-4)][GlcNAc(b1-6)]GlcNAc
# Method in brief: as §1
# [15] = target: GlcNAc(b1-3)[GlcNAc(b1-6)]Gal(b1-4)GlcNAc
# Method in brief: as §1
# [16] = target: GlcNAc(b1-3)[GlcNAc(b1-6)]GalNAc
# Method in brief: as §1
# [17] = target: GlcNAc(b1-4)Gal(b1-4)GlcNAc
# Method in brief: as §1
binder,measurement,setting,value
B1,glycan array binding signal (z-score),[1],1.57
same,glycan array binding signal (z-score),[2],0.212
same,glycan array binding signal (z-score),[3],2.14
same,glycan array binding signal (z-score),[4],0.187
same,glycan array binding signal (z-score),[5],0.361
same,glycan array binding signal (z-score),[6],-0.16
same,glycan array binding signal (z-score),[7],0.811
same,glycan array binding signal (z-score),[8],-1.17
same,glycan array binding signal (z-score),[9],1.04
same,glycan array binding signal (z-score),[10],-1.42
same,glycan array binding signal (z-score),[11],-1.37
same,glycan array binding signal (z-score),[12],0.223
same,glycan array binding signal (z-score),[13],-0.843
same,glycan array binding signal (z-score),GlcNAc(b1-3)GalNAc,0.134
same,glycan array binding signal (z-score),GlcNAc(b1-3)Man,-0.28
same,glycan array binding signal (z-score),[14],-0.452
same,glycan array binding signal (z-score),[15],-0.47
same,glycan array binding signal (z-score),[16],0.668
same,glycan array binding signal (z-score),[17],0.808

# Given as tab-separated lines: entries from further up
binder	measurement	setting	value
B1	glycan array binding signal (z-score)	[7]	0.811
same	glycan array binding signal (z-score)	[8]	-1.17

# Reference: the supplement of paper PMC8728848
